Measured values taken from patent US20160201132A1, “GENE EXPRESSION BIOMARKERS OF LAQUINIMOD RESPONSIVENESS” (Teva Pharmaceutical Industries Ltd., priority 2013, published 2016).
This continues a long series; more values of the same kind are listed elsewhere.

Test system: PBMC of RRMS patients
Experiment: Gene expression microarray analysis (HG-U133A-2) of PBMC from RRMS patients treated with LAQ, ancillary study to ALLEGRO
Format: in vivo, human
Description: The goal of this ancillary study was to characterize gene expression changes and corresponding biological mechanisms induced in PBMC of RRMS patients by LAQ treatment. According to ALLEGRO clinical trial inclusion criteria, 25 patients were randomly assigned to receive LAQ (n=13, age 38.8±2.3 years, female/male ratio: 8/5) or placebo (n=12, age 37.2±3.4 years, female/male ratio: 8/4).
Peripheral blood samples were obtained from RRMS patients at baseline before start of LAQ treatment or placebo, after 0, 1, 6 and 24 month of treatment (visit 0, 1, 6 and 7 according to ALLEGRO clinical trial protocol correspondently) for gene microarray analysis.
Briefly, 1) Peripheral blood mononuclear cells (PBMC) were obtained from RRMS patients that participated in ALLEGRO and were treated daily with 0.6 mg LAQ or placebo. PBMC were subjected for gene expression analysis (HU-133A-2-Affymatrix arrays) at baseline and at 1 and 6 months of LAQ treatment; 2) Data was analyzed by Partek Genomics Solution software. Most informative genes (MIGs) were defined as those that differentiated between groups with p<0.01. Gene functional annotation, enrichment and pathway analysis were performed by Ingenuity software. For each time point, genes that changed in placebo group were excluded from further analysis; and 3) Verification of LAQ related mechanism was performed by Western blot.
PBMC were extracted from 15 ml peripheral blood, separated by Ficoll-Hypaque gradient. Total RNA was extracted using both Trizol (Invitrogen, USA) and Phase-Lock-Gel columns (Eppendorf, Germany) including a DNase digestion step. RNA integrity was assessed by RNA Experion automated electrophoresis system (Bio-Rad Laboratories, Hercules, Calif.).
Probe synthesis using 3 μg total RNA, hybridization, detection, and scanning was performed according to the standard Affymetrix, Inc. USA protocols; cDNA was synthesized using the Two-Cycle cDNA Synthesis Kit (Affymetrix, Inc., USA), and in-vitro transcription performed with the GeneChip IVT Labeling Kit (Affymetrix, Inc., USA). The biotin-labeled IVT-RNA was hybridized to HG-U133A-2 arrays containing 18,400 gene transcripts, each corresponding to 14,500 well-annotated human genes, washed in a GeneChip Fluidics Station 450 (Hewlett Packard, USA, GeneArray-™ scanner G2500A) and scanned according to the manufacturer's protocol (Affymetrix, Inc., USA).
Data analysis was performed on Partek Genomics Solution software (www.partek.com; Partek Incorporated, St. Louis, Mo.). Expression values were computed from raw CEL files by applying the Robust Multi-Chip Average (RMA) background correction algorithm. RMA correction included: 1) values background correction; 2) quintile normalization; 3) log 2 transformation; and 4) median polish summarization. The ANOVA, Repeated Measures and correlation analysis implicated in Partek software ware applied to evaluate LAQ effects. Most informative genes MIGs were defined as those that differentiated between experimental groups with p<0.01. All p-values were calculated for False Discovery Rate (FDR) multiple test correction at p=0.05.
Additionally, significance of individual genes was tested by parametric T-test and non parametric Mann-Whitney test using Bootstrapping approach based on repeated permutations of the data with 5% FDR for multiple testing.
Gene functional annotation, enrichment, and pathway analyses to identify the leading biological pathways that operated under LAQ treatment were performed by Ingenuity Pathways Analysis software (www.ingenuity.com).
ANOVA analysis was used to compare PBMC gene expression after 1, 6 or 24 month of LAQ treatment with baseline gene expression.
For each time point inventors performed analysis source of variation in dataset. (FIG. 1). Age, gender and batch effects were considered as confounders regarding LAQ or Placebo related changes. For each time point genes associated with Placebo effect were evaluated and excluded from further analysis. […]

CCN(C(=O)c1c(O)c2c(Cl)cccc2n(C)c1=O)c1ccccc1 [LAQ, 5-chloro-N-ethyl-4-hydroxy-1-methyl-2-oxo-N-phenyl-1,2-dihydroquinoline-3-carboxamide]
Fold-Change (1.0 vs. 0.0) (37966_at PARVB, one month of treatment vs baseline): −1.451
Fold-Change (1.0 vs. 0.0) (40687_at GJA4, one month of treatment vs baseline): −1.146
Fold-Change (1.0 vs. 0.0) (61297_at CASKIN2, one month of treatment vs baseline): −1.11
Fold-Change (1.0 vs. 0.0) (200833_s_at hCG_1757335 /// RAP1B, one month of treatment vs baseline): −1.129
Fold-Change (1.0 vs. 0.0) (200844_s_at PRDX6, one month of treatment vs baseline): −1.145
Fold-Change (1.0 vs. 0.0) (200845_s_at PRDX6, one month of treatment vs baseline): −1.2308
Fold-Change (1.0 vs. 0.0) (200885_at RHOC, one month of treatment vs baseline): −1.284
Fold-Change (1.0 vs. 0.0) (200905_x_at HLA-E, one month of treatment vs baseline): −1.071
Fold-Change (1.0 vs. 0.0) (201029_s_at CD99, one month of treatment vs baseline): −1.128
Fold-Change (1.0 vs. 0.0) (201124_at ITGB5, one month of treatment vs baseline): −1.252
Fold-Change (1.0 vs. 0.0) (201280_s_at DAB2, one month of treatment vs baseline): −1.644
Fold-Change (1.0 vs. 0.0) (201528_at RPA1, one month of treatment vs baseline): −1.2309
Fold-Change (1.0 vs. 0.0) (201616_s_at CALD1, one month of treatment vs baseline): −1.484
Fold-Change (1.0 vs. 0.0) (201885_s_at CYB5R3, one month of treatment vs baseline): −1.153
Fold-Change (1.0 vs. 0.0) (201904_s_at CTDSPL, one month of treatment vs baseline): −1.514
Fold-Change (1.0 vs. 0.0) (202332_at CSNK1E, one month of treatment vs baseline): −1.089
Fold-Change (1.0 vs. 0.0) (202466_at POLS, one month of treatment vs baseline): −1.101
Fold-Change (1.0 vs. 0.0) (202501_at MAPRE2, one month of treatment vs baseline): −1.123
Fold-Change (1.0 vs. 0.0) (202555_s_at MYLK, one month of treatment vs baseline): −1.592
Fold-Change (1.0 vs. 0.0) (202573_at CSNK1G2, one month of treatment vs baseline): −1.111
Fold-Change (1.0 vs. 0.0) (202619_s_at PLOD2, one month of treatment vs baseline): −1.289
Fold-Change (1.0 vs. 0.0) (202620_s_at PLOD2, one month of treatment vs baseline): −1.26
Fold-Change (1.0 vs. 0.0) (202708_s_at HIST2H2BE, one month of treatment vs baseline): −1.55
Fold-Change (1.0 vs. 0.0) (202774_s_at SFRS8, one month of treatment vs baseline): −1.098
Fold-Change (1.0 vs. 0.0) (202778_s_at ZMYM2, one month of treatment vs baseline): −1.127
Fold-Change (1.0 vs. 0.0) (202838_at FUCA1, one month of treatment vs baseline): 1.564
Fold-Change (1.0 vs. 0.0) (202974_at MPP1, one month of treatment vs baseline): −1.37
Fold-Change (1.0 vs. 0.0) (203180_at ALDH1A3, one month of treatment vs baseline): −1.167
Fold-Change (1.0 vs. 0.0) (203414_at MMD, one month of treatment vs baseline): −1.419
Fold-Change (1.0 vs. 0.0) (203896_s_at PLCB4, one month of treatment vs baseline): −1.139
Fold-Change (1.0 vs. 0.0) (203998_s_at SYT1, one month of treatment vs baseline): −1.135
Fold-Change (1.0 vs. 0.0) (204000_at GNB5, one month of treatment vs baseline): −1.195
Fold-Change (1.0 vs. 0.0) (204187_at GMPR, one month of treatment vs baseline): −1.473
Fold-Change (1.0 vs. 0.0) (204196_x_at PKNOX1, one month of treatment vs baseline): −1.117
Fold-Change (1.0 vs. 0.0) (204328_at TMC6, one month of treatment vs baseline): −1.084
Fold-Change (1.0 vs. 0.0) (204466_s_at SNCA, one month of treatment vs baseline): −1.562
Fold-Change (1.0 vs. 0.0) (204467_s_at SNCA, one month of treatment vs baseline): −1.476
Fold-Change (1.0 vs. 0.0) (204486_at (gene symbol not given), one month of treatment): −1.185
Fold-Change (1.0 vs. 0.0) (204597_x_at STC1, one month of treatment vs baseline): −1.144
Fold-Change (1.0 vs. 0.0) (204627_s_at ITGB3, one month of treatment vs baseline): −1.9911
Fold-Change (1.0 vs. 0.0) (204629_at PARVB, one month of treatment vs baseline): −1.275
Fold-Change (1.0 vs. 0.0) (204993_at GNAZ, one month of treatment vs baseline): −1.478
Fold-Change (1.0 vs. 0.0) (205128_x_at PTGS1, one month of treatment vs baseline): −1.543
Fold-Change (1.0 vs. 0.0) (205221_at HGD, one month of treatment vs baseline): −1.53
Fold-Change (1.0 vs. 0.0) (205426_s_at HIP1, one month of treatment vs baseline): −1.142
Fold-Change (1.0 vs. 0.0) (205434_s_at AAK1, one month of treatment vs baseline): −1.0984
Fold-Change (1.0 vs. 0.0) (205754_at F2, one month of treatment vs baseline): −1.144
Fold-Change (1.0 vs. 0.0) (205870_at BDKRB2, one month of treatment vs baseline): −1.141
Fold-Change (1.0 vs. 0.0) (206110_at (no gene symbol), one month of treatment vs baseline): −1.796
Fold-Change (1.0 vs. 0.0) (206167_s_at ARHGAP6, one month of treatment vs baseline): −1.768
Fold-Change (1.0 vs. 0.0) (206176_at BMP6, one month of treatment vs baseline): −1.53
Fold-Change (1.0 vs. 0.0) (206204_at GRB14, one month of treatment vs baseline): −1.8
Fold-Change (1.0 vs. 0.0) (206655_s_at GP1BB /// SEPT5, one month of treatment vs baseline): −1.814
Fold-Change (1.0 vs. 0.0) (206779_s_at ASMT, one month of treatment vs baseline): −1.133
Fold-Change (1.0 vs. 0.0) (207046_at HIST2H4A /// HIST2H4B, one month of treatment vs baseline): −1.237
Fold-Change (1.0 vs. 0.0) (207156_at HIST1H2AG, one month of treatment vs baseline): −1.674
Fold-Change (1.0 vs. 0.0) (207397_s_at HOXD13, one month of treatment vs baseline): −1.115
Fold-Change (1.0 vs. 0.0) (207523_at C6orf10, one month of treatment vs baseline): −1.111
Fold-Change (1.0 vs. 0.0) (207550_at MPL, one month of treatment vs baseline): −1.891
Fold-Change (1.0 vs. 0.0) (207554_x_at TBXA2R, one month of treatment vs baseline): −1.287
Fold-Change (1.0 vs. 0.0) (207558_s_at PITX2, one month of treatment vs baseline): −1.103
Fold-Change (1.0 vs. 0.0) (207745_at CABP2, one month of treatment vs baseline): −1.131
Fold-Change (1.0 vs. 0.0) (207799_x_at (no gene symbol), one month of treatment vs baseline): −1.204
Fold-Change (1.0 vs. 0.0) (207808_s_at PROS1, one month of treatment vs baseline): −1.964
Fold-Change (1.0 vs. 0.0) (207827_x_at SNCA, one month of treatment vs baseline): −1.353
Fold-Change (1.0 vs. 0.0) (207963_at C6orf54, one month of treatment vs baseline): −1.151
Fold-Change (1.0 vs. 0.0) (208327_at CYP2A13, one month of treatment vs baseline): −1.149
Fold-Change (1.0 vs. 0.0) (208343_s_at NR5A2, one month of treatment vs baseline): −1.117
Fold-Change (1.0 vs. 0.0) (208403_x_at MAX, one month of treatment vs baseline): −1.294
Fold-Change (1.0 vs. 0.0) (208490_x_at HIST1H2BF, one month of treatment vs baseline): −1.435
Fold-Change (1.0 vs. 0.0) (208506_at HIST1H3F, one month of treatment vs baseline): −1.131
Fold-Change (1.0 vs. 0.0) (208523_x_at HIST1H2BI, one month of treatment vs baseline): −1.475
Fold-Change (1.0 vs. 0.0) (208527_x_at HIST1H2BE, one month of treatment vs baseline): −1.415
Fold-Change (1.0 vs. 0.0) (208601_s_at TUBB1, one month of treatment vs baseline): −1.842
Fold-Change (1.0 vs. 0.0) (208690_s_at PDLIM1, one month of treatment vs baseline): −1.321
Fold-Change (1.0 vs. 0.0) (208750_s_at ARF1, one month of treatment vs baseline): −1.102
Fold-Change (1.0 vs. 0.0) (208752_x_at NAP1L1, one month of treatment vs baseline): −1.134
Fold-Change (1.0 vs. 0.0) (208753_s_at NAP1L1, one month of treatment vs baseline): −1.221
Fold-Change (1.0 vs. 0.0) (208786_s_at MAP1LC3B, one month of treatment vs baseline): −1.148
Fold-Change (1.0 vs. 0.0) (208791_at CLU, one month of treatment vs baseline): −1.776
Fold-Change (1.0 vs. 0.0) (208792_s_at CLU, one month of treatment vs baseline): −1.795
